The inconclusive results got no clear call from the source; some entries with a clear call stand among them for comparison. For part of these data: Where the call is inconclusive, the potency comes from a doubtful curve fit. Active and inactive are the calls of the source. Calls come from the whole dose curve; as a rule, active = well fitted curve in the direction sought with a large enough effect; inconclusive = small, poorly fitted or top-dose-only effect, or another doubt; inactive = no such curve, though single readings can be large; an effect the other way counts as inactive or inconclusive.
What was measured:
[1] = Quantitative High-Throughput drug screen in 47 multiple myeloma cell lines against the NCATS MIPE library collection: KMS20_JCRB cell viability assay (AID 1918973); settings: CellTiter-Glo ATP, 48 h; viability (% of DMSO): at 45.8 µM (top of the series); note: nearly all actives have a fitted effect of over 45% in size; note: potency is the fitted concentration of half-maximal effect
Outline: (§1)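 Viability readout: CellTiter-Glo luminescence following 5 min room-temperature incubation with reagent. Prior exposure: 48 h, 37C, humidified 5% CO2, 500 cells per well.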

[2] = Quantitative High-Throughput drug screen in 47 multiple myeloma cell lines against the NCATS MIPE library collection: KMS21BM_JCRB cell viability assay (AID 1918974); settings: ATP luminescence, 48 h; viability: at 45.8 µM (top of the series) unless noted; note: potency is the fitted concentration of half-maximal effect
Outline: as §1

[3] = Quantitative High-Throughput drug screen in 47 multiple myeloma cell lines against the NCATS MIPE library collection: KMS26_JCRB cell viability assay (AID 1918975); settings: KMS26 myeloma cells viability, CellTiter-Glo ATP, 48 h; viability (% of DMSO): at 45.8 µM (top of the series); note: nearly all actives have a fitted effect of over 45% in size; note: potency is the fitted concentration of half-maximal effect
Outline: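 Luminescent ATP measurement with CellTiter-Glo gives viability, scaled between DMSO-only wells (100%) and media-only wells (0%). Cells, 500 per well, faced library compounds for 48 hours at 37C.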

[4] = Quantitative High-Throughput drug screen in 47 multiple myeloma cell lines against the NCATS MIPE library collection: MOLP8_DSMZ cell viability assay (AID 1918977); settings: MOLP8 myeloma viability, CellTiter-Glo ATP luminescence, 48 h; viability (% of control): at 45.8 µM (top of the series); note: nearly all actives have a fitted effect of over 45% in size; note: potency is the fitted concentration of half-maximal effect
Outline: (§2)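 Myeloma cells (500/well) treated with MIPE 4.0 compounds for 48 h at 37 °C, 5% CO2. Viability read as ATP via CellTiter-Glo luminescence after 5 min at RT; DMSO-only wells = 100%, media-only = 0% viability.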

[5] = Quantitative High-Throughput drug screen in 47 multiple myeloma cell lines against the NCATS MIPE library collection: NCIH929_DSMZ cell viability assay (AID 1918978); note: nearly all actives have a fitted effect of over 35% in size; note: potency is the fitted concentration of half-maximal effect
Outline: as §2

[6] = Quantitative High-Throughput drug screen in 47 multiple myeloma cell lines against the NCATS MIPE library collection: MM1S_ATCC cell viability assay (AID 1918980); note: potency is the fitted concentration of half-maximal effect; nearly all actives have a fitted effect of over 45% in size
Outline: as §2

[7] = Quantitative High-Throughput drug screen in 47 multiple myeloma cell lines against the NCATS MIPE library collection: LP1_DSMZ cell viability assay (AID 1918982); settings: LP1 myeloma viability, CellTiter-Glo ATP luminescence, 48 h; viability (% of control): at 45.8 µM (top of the series); note: nearly all actives have a fitted effect of over 35% in size; note: potency is the fitted concentration of half-maximal effect
Outline: as §2

[8] = Quantitative High-Throughput drug screen in 47 multiple myeloma cell lines against the NCATS MIPE library collection: L363_DSMZ cell viability assay (AID 1918984); settings: L363 myeloma viability, CellTiter-Glo ATP luminescence, 48 h; viability (% of control): at 45.8 µM (top of the series); note: nearly all actives have a fitted effect of over 40% in size; note: potency is the fitted concentration of half-maximal effect
Outline: as §2

[9] = Quantitative High-Throughput drug screen in 47 multiple myeloma cell lines against the NCATS MIPE library collection: KMS34_JCRB cell viability assay (AID 1918985); settings: KMS34 myeloma viability, CellTiter-Glo ATP luminescence, 48 h; viability, percent of control: at 45.8 µM (top of the series); note: nearly all actives have a fitted effect of over 40% in size; note: potency is the fitted concentration of half-maximal effect
Outline: as §2

[10] = Quantitative High-Throughput drug screen in 47 multiple myeloma cell lines against the NCATS MIPE library collection: OCIMY7_PLB cell viability assay (AID 1918987); settings: OCI-MY7 myeloma viability, CellTiter-Glo ATP, 48 h; viability (% of DMSO): at 45.8 µM (top of the series); note: nearly all actives have a fitted effect of over 65% in size; note: potency is the fitted concentration of half-maximal effect
Outline: as §2

[11] = Quantitative High-Throughput drug screen in 47 multiple myeloma cell lines against the NCATS MIPE library collection: OCIMY5_PLB cell viability assay (AID 1918988); settings: OCI-MY5 myeloma viability, ATP luminescence, 48 h; viability, % of control: at 45.8 µM (top of the series); note: nearly all actives have a fitted effect of over 65% in size
Outline: as §2

[12] = Quantitative High-Throughput drug screen in 47 multiple myeloma cell lines against the NCATS MIPE library collection: OPM1_PLB cell viability assay (AID 1918989); note: nearly all actives have a fitted effect of over 40% in size; note: potency is the fitted concentration of half-maximal effect
Outline: as §2

[13] = Quantitative High-Throughput drug screen in 47 multiple myeloma cell lines against the NCATS MIPE library collection: SKMM1_PLB cell viability assay (AID 1919863); settings: SKMM1 myeloma viability, CellTiter-Glo ATP, 48 h; viability: hits give low values; note: nearly all actives have a fitted effect of over 35% in size; note: potency is the fitted concentration of half-maximal effect
Outline: as §2

[14] = Quantitative High-Throughput drug screen in 47 multiple myeloma cell lines against the NCATS MIPE library collection: U266_ATCC cell viability assay (AID 1919864); settings: U266 myeloma viability, CellTiter-Glo ATP luminescence, 48 h; viability (% of DMSO control): at 45.8 µM (top of the series); note: nearly all actives have a fitted effect of over 35% in size; note: potency is the fitted concentration of half-maximal effect
Outline: as §2

[15] = Quantitative High-Throughput drug screen in 47 multiple myeloma cell lines against the NCATS MIPE library collection: MM1R_ATCC cell viability assay (AID 1918981)
Outline: as §2

[16] = Quantitative High-Throughput drug screen in 47 multiple myeloma cell lines against the NCATS MIPE library collection: OCIMY1_PLB cell viability assay (AID 1918979); settings: OCI-MY1 myeloma viability, CellTiter-Glo ATP, 48 h; viability: at 45.8 µM (top of the series) unless noted
Outline: as §2

[17] = Quantitative High-Throughput drug screen in 47 multiple myeloma cell lines against the NCATS MIPE library collection: XG6_PLB cell viability assay (AID 1919865); settings: XG6 myeloma viability, CellTiter-Glo ATP luminescence, 48 h; viability (% of control): at 45.8 µM (top of the series); note: nearly all actives have a fitted effect of over 40% in size
Outline: as §2

[18] = Quantitative High-Throughput drug screen in 47 multiple myeloma cell lines against the NCATS MIPE library collection: XG1_PLB cell viability assay (AID 1919866); settings: CellTiter-Glo ATP, 48 h; viability: at 45.8 µM (top of the series)
Outline: as §2

[19] = Quantitative High-Throughput drug screen in 47 multiple myeloma cell lines against the NCATS MIPE library collection: KMS28PE_JCRB cell viability assay (AID 1918983); note: nearly all actives have a fitted effect of over 35% in size
Outline: as §2

CCN1CCCC1CNC(=O)c1cc(S(=O)(=O)CC)c(N)cc1OC (stereo not given)
inconclusive: Potency [2] 33.2 µM [rising, partial curve, poor fit] | Potency [5] 0.0132 µM [cytotoxic, full curve, poor fit] | Potency [6] 20.9 µM [cytotoxic, partial curve, poor fit] | Potency [8] 11.8 µM [cytotoxic, partial curve, poor fit]
inactive: Potency [1] | Potency [3] | Potency [4] | Potency [7] | Potency [9] | Potency [10] | Potency [11] | Potency [12] | viability [13] 121% | Potency [14]

COC1CCC(C(=O)c2ccc3nc4c(cc3c2)CCCO4)CC1 (stereo not given)
inconclusive: Potency [1] 14.8 µM [cytotoxic, partial curve, poor fit] | Potency [2] 0.0132 µM [rising, full curve, poor fit] | Potency [4] 23.5 µM [cytotoxic, partial curve, poor fit] | Potency [7] 20.9 µM [cytotoxic, partial curve, poor fit] | Potency [10] 37.2 µM [cytotoxic, partial curve, poor fit]
active: Potency [3] 23.5 µM | Potency [6] 20.9 µM | Potency [15] 18.7 µM | Potency [8] 23.5 µM | Potency [9] 29.6 µM | Potency [12] 14.8 µM

COc1ccc(Cc2nccc3cc(OC)c(OC)cc23)cc1OC
inactive: Potency [2]
inconclusive: Potency [1] 37.2 µM [cytotoxic, single point] | Potency [3] 16.6 µM [cytotoxic, partial curve, poor fit] | Potency [4] 0.418 µM [cytotoxic, full curve, poor fit] | Potency [8] 13.2 µM [cytotoxic, partial curve, poor fit] | Potency [13] 23.5 µM [cytotoxic, single point] | Potency [14] 33.2 µM [cytotoxic, single point]
active: Potency [16] 18.7 µM | Potency [6] 23.5 µM | Potency [9] 3.72 µM

Nc1ccn(C2CO[C@H](CO)O2)c(=O)n1 (stereo not given in full)
inactive: Potency [5] | Potency [7] | Potency [8] | Potency [14] | Potency [17]
inconclusive: Potency [1] 0.0235 µM [cytotoxic, full curve, poor fit] | Potency [2] 0.0093 µM [rising, full curve, poor fit] | Potency [3] 0.001 µM [cytotoxic] | Potency [4] 0.0012 µM [cytotoxic, full curve, poor fit] | Potency [6] 0.001 µM [cytotoxic] | Potency [9] 1.66 µM [cytotoxic, full curve, poor fit] | Potency [10] 0.0042 µM [rising, full curve, poor fit] | Potency [13] 14.8 µM [cytotoxic, partial curve, poor fit]

CCc1nc(-c2cccc(C)c2)c(-c2ccnc(NC(=O)c3ccccc3)c2)s1
inactive: Potency [8]
active: Potency [13] 7.43 µM
inconclusive: Potency [1] 20.9 µM [cytotoxic, partial curve, poor fit] | Potency [2] 37.2 µM [rising, partial curve, poor fit] | Potency [3] 18.7 µM [cytotoxic, partial curve, poor fit] | Potency [4] 3.32 µM [cytotoxic, partial curve, poor fit] | Potency [5] 18.7 µM [cytotoxic, single point] | Potency [16] 29.6 µM [cytotoxic, single point] | Potency [15] 5.26 µM [cytotoxic, partial curve, poor fit] | Potency [7] 20.9 µM [cytotoxic, partial curve] | Potency [9] 1.48 µM [cytotoxic, full curve] | Potency [10] 33.2 µM [cytotoxic, partial curve, poor fit] | Potency [14] 29.6 µM [cytotoxic, single point] | Potency [18] 16.6 µM [cytotoxic, partial curve]

COc1cc2c(cc1OC)CC(=O)N(CCCN(C)C[C@H]1Cc3cc(OC)c(OC)cc31)CC2
inconclusive: Potency [1] 16.6 µM [cytotoxic, partial curve, poor fit] | Potency [2] 10.5 µM [cytotoxic, single point] | Potency [3] 8.33 µM [cytotoxic, partial curve, poor fit] | Potency [4] 13.2 µM [cytotoxic, partial curve, poor fit] | Potency [16] 37.2 µM [rising, single point] | Potency [7] 13.2 µM [cytotoxic, partial curve, poor fit] | Potency [8] 5.9 µM [cytotoxic, full curve] | Potency [9] 14.8 µM [cytotoxic, partial curve, poor fit] | Potency [12] 14.8 µM [cytotoxic, partial curve, poor fit] | Potency [13] 13.2 µM [cytotoxic, partial curve, poor fit]
inactive: Potency [19] | Potency [10]
active: Potency [6] 16.6 µM
